Test results: publication PMC10333084
These are yes or no findings as the source states them, for the method shown. Binding seen in cells or lysates may run through a third protein. Some results given as binding are weak or reduced against the parent protein; the word gives no strength.

By UniProt entry, the sequences of proteins in these tests, tags left out.
UniProt Q8TAQ2: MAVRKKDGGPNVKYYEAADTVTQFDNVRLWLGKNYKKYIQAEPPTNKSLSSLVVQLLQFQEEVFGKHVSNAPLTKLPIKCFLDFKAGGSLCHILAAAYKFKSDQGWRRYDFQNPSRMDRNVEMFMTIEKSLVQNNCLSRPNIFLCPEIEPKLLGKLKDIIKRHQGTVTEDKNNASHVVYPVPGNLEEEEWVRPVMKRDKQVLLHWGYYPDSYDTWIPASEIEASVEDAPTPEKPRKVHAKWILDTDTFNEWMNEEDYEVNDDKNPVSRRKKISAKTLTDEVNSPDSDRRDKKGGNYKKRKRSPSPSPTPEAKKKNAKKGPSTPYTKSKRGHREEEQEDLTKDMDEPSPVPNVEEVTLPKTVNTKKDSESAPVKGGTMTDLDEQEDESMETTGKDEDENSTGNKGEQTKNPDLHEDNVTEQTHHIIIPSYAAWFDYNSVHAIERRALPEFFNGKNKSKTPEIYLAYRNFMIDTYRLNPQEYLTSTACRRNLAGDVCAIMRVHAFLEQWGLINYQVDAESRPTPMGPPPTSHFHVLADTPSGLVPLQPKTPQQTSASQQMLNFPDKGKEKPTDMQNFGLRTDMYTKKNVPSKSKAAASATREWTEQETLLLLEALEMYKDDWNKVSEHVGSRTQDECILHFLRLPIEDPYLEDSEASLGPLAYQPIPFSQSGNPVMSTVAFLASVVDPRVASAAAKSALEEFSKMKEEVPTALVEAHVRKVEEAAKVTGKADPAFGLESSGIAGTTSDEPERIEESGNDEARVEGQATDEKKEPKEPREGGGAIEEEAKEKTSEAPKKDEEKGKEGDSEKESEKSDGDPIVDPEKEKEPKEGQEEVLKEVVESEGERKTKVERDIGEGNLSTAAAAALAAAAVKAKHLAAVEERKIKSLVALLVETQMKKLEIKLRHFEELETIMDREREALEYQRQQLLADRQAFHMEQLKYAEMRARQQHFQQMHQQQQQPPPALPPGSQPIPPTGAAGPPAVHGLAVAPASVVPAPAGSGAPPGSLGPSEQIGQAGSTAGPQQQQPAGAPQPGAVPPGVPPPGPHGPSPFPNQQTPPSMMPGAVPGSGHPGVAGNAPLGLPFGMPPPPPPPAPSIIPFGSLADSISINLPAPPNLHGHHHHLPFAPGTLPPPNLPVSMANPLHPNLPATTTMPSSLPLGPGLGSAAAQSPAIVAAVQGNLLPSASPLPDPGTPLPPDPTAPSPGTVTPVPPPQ

Molecular target: T1, F-box only protein 28 (FBXO28) (UniProt Q9NVF7)
T1 sequence: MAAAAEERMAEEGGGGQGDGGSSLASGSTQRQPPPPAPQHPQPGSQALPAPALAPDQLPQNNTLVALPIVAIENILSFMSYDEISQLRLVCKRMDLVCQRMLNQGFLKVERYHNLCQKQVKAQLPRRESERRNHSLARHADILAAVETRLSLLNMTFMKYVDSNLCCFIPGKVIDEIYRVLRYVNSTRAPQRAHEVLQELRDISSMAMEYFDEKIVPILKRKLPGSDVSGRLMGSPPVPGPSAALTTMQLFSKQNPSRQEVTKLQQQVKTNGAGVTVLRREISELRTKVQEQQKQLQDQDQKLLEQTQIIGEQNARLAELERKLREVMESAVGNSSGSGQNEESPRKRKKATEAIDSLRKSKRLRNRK
Experiment: co-IP; cell lysate pre-cleared with protein A+G, incubated with anti-Flag, anti-SMARCC2, anti-HA or normal rabbit IgG overnight at 4 °C, protein A+G for 4 hours; SDS-PAGE and western blot

## SMARCC2 (from UniProt Q8TAQ2 1-1214)
  binding: binds
